The source of these data is publication PMC6054424, “Expression and purification of a functional heteromeric GABAA receptor for structural studies” (PLoS ONE, 2018).

Chains of the proteins cited; added tags and fusions are not shown. Residues count along the entry.
UniProt P62813, residues 28-455: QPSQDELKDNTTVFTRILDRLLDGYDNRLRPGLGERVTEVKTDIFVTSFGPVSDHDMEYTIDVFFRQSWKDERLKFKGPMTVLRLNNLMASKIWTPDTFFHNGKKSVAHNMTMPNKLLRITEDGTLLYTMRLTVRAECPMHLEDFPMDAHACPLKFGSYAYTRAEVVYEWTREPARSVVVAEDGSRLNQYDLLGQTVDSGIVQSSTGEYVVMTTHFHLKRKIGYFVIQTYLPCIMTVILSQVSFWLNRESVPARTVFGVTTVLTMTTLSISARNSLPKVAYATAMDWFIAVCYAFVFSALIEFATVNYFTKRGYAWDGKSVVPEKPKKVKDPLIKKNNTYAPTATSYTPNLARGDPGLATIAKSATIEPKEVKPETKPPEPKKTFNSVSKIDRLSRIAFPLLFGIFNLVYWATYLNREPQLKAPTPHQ

Results are given in words; binding and its absence hold for the method and conditions named. Some entries that bind do so weakly or less than the wild type.

In the experiment the target is α1-EGFP (full-length rat GABAA receptor α1 subunit with EGFP in the M3/M4 loop), in oocytes (rat) (UniProt P62813). Description: SEC; fluorescence detection SEC (FSEC) of 8-12 oocytes solubilised with 40 mM C12M; Superose6 10/300 GL in TBS pH 8.0, 1 mM C12M, 1 mM EDTA; GFP fluorescence of the tagged subunit followed; ferritin and EGFP as standards.

On to “α1-EGFP (full-length rat GABAA receptor α1 subunit with EGFP in the M3/M4 loop), in oocytes (from UniProt P62813 28-455)”, for which the binding entry was “binds”.
